Results: paper PMC11277477
No constants are given. Whether binding was seen depends on the method and setting. Binding seen in cells or lysates may run through a third protein. These calls come from enrichment with a bait or labelling near it, and not all partners need be listed. Where a sequence is shown, tags or fusion partners need not be part of it.

T1: GST-Adh recombinant protein (E. histolytica)
T1 sequence: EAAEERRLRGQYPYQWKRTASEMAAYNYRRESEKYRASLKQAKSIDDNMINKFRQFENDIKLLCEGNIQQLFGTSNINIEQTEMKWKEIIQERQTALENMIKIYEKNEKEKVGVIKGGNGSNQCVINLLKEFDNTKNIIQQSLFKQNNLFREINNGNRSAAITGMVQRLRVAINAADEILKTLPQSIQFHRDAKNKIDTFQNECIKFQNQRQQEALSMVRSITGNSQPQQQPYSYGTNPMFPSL

B1: Pyruvate:ferredoxin oxidoreductase (enzyme, UniProt C4LTX6 1-1162)
chain: MQSVDGNQAAAYVSYALSDVSFIFPITPSSPMAENADVWSSQGRKNVFGQVVDVYEMESEAGASGAVHGGCAAGSLVSTYTCSQGLMLMIPNMIKIAGEHLPCVFHVTARALAGQALSIFGDHSDVMACRSTGFCLLSSHNVQQCHDLAIVAHLATLEASLPFMHFFDGFRTSHEIQKIHQLTYDQIKSLVDMKYVDRAHKRGLNPIHPSQRGTSQGPDVFFQAVEKSNADYLKVPEIVQKYMDKVGELTGRHYKIFEYYGAADAERVVVVMGAAVPVLEECVDYLMKSGEKVGVLSVHLYRPWSAKHFLEQLPKTVTKISVLDRTKEAGSFGEPLYLDVATTLLDAGKHIKCVGGRYGLGSKEFTPAMAKAVFDNLKNEEPKNHFTVGIEDDVTHMSLPIGENFNPIPEGTTQCMFWGLGSDGTVGANHDAIRIIGQNTDMYVQGYFSYDAHKSGGVTVSHLRFGQKPIKSQYLIQNADYTACHFPNYVKKYKLLDAAKPNSVFVLNCPWTGAELEAQLPGSLKRVIAEKQIKFYTIDAIKIGQEVKLGRRINMIMQTVFFKLANVIPFEKAIVLLKEAVQKTYGAKGPAIVKMNHDAIDKALDGLVEVKVPAEWANAPLETVTKIEAPEFVTDVLMPQLAMKGNELPVSKFAADGFMPMGTTKYEKRGIATKIPTWEASKCVQCNMCSLYCPHAAIRCFYLTPEESAKAPAEFVQIDGKAQQAGYKFRIQVSAMDCTGCEVCTTACPVKCLSMTPFEQVSEVESKNWEFAMTLSPKNSLSDRSNIKTTMIHQPYLEFSGACEGCNETALVKLITQLYGERTIIANATGCSSIWGATWGTNPYTVDGEGRGPAWGNSLFEDNAEYGFGMFKANEQRRLYLEQICKEAIAEGKLSNELKTLLEEWIAKKEDANESEKIYAAVKPLLAAEKDKSEVLGLIEQNSDMFVKISHWIVGGDGWAYDIGYNGVDHVLASGHNVNILVLDTEMYSNTGGQKSKATNLGAVVKFASSGCKRPKKDLGAIAMAYGDVYVASIALGANPAQAFKAFKEAESYNGVSLIIAYCPCKEQGVPLQKSIEEAKMAVNSGYWSLYRYDPRLVEQGKPGLQLDCSEVKGDLEAFLARENRFALLGRKDKETADKLHAQLKANIDKKLAHLKVVSKQA
B2: Fructose-1,6-bisphosphate aldolase (enzyme, UniProt C4LXD7 1-330)
chain: MAAKTVNYKELGLCNHKEMFEHAIKGGFAVPGFNFNNLEQMQAIIQACTEAKSPVILQVSKGAREYANATLLRNLAKGAVEYSKEIDPEHKGVPISLNLDHGANFQICKECVDNGFSNVMIDGSALPYEENVKLTKQVVEYAHKFGVTVEGELGVLSGVEDDVAAAEHVFTDPKDVEAFVKDTGVDALAISIGTSHGAYKFKPGMHPRIRLDILHEVEKRIPGFPIVLHGSSSVPQEWVAVINQYGGKLESAIGIPEDQIREAVKSAVCKVNIDSDGRLAMTGSIRRYLAEHPKDFDPRQYLGPARQALKELYLHKVSDKVLNSAGKSWY
B3: Poly (ADP-ribose) glucohydrolase (enzyme, UniProt C4LY84 1-431)
chain: MENKIIQTSTLSIEKIRTAITKEFKTCQDVVEFFINQEEERTNKKINKGVGDGYEIALKSFYNKVHSLGVTKKSFEEYFQWFIGGLKNAMNKLINNNDGNLEKNQSTIYIPISKSGTPSTIQIKRWEIFGILACSFFNVQWDKKVERIGNLSFVYISTNSRISIQRLICIFAYFHVMIEMDEKTLQEIVTYERVIQKKPYDWEHNETPIKTYPFVSGGLEMSEMNVHVDFANKYLQIHKIVPSITQEELLFSVRPECLISLILFEVLLDNEAVLIKNTLHISLSEGYQQTFKWIGFCKNQILKQPNIILAIDSVINSCFGKENIDRDLNKCMIGFQCAGNKIATGQWGCGSFGNDQLLKMAQQYMVLSTLGLEASIHWMNFSRYNELNDYMEICKSKKMTVKDIYYILCSFDGDKNTFVDYFKQQVQSFHK
B4: Malic enzyme (enzyme, UniProt A0A8U0WNY6 1-487)
chain: MAQLKADLSNLEECLPSTLSQEQRAVAKTQFYKELAEKVHKFYKGKIQIMPKCTLAGFNWFNAYYTPGVSRISTNIRDNNDSSLFYSLRGNFVGVVSDSTRVLGDGDVTPPGGLGVMEGKALLMKYLGGIDAVPICIDSKNKEGKNDPDAVIEFVQRIQHTFGAINLEDISQPNCYKILDVLRESCDIPVWHDDQQGTASVTLAGLLNALKLVKKDIHECRMVFIGAGSSNTTCLRLIVTAGADPKKIVMFDSKGSLHNGREDIKKDTRFYRKWEICETTNPSKFGSIAEACVGADVLISLSTPGPGVVKAEWIKSMGEKPIVFCCANPVPEIYPYEAKEAGAYIVATGRGDFPNQVNNSVGFPGILKGALIVRARKITDNMAIAASRALAEFAEKRGINPDNIIGTMDEPGIFPKEAADVAMQAIKDGVARVTDLTWQQVYDIAEHDIKEARESAQLLQDSKHIVDFPQETLNECLAYAINKVTGK
B5: 60S ribosomal protein L14 (protein, UniProt C4LTQ0 1-121)
chain: MKTGPFASKLAVIVEILDHNRVLVDGPQAITGVPRQVVNLNTISLTSFVVNKVTRGMTHKKLCLRFTQDAIIKRLNKTATGKAIEKRILREKMTDFDKFQVSIINRKINAAAKIAVARKAH
B6: Ribosomal protein L18a (protein, UniProt C4LXZ0 1-173)
chain: MKEYYITARCTDKAHNPNEIFRSRVFAPNYVVAKSKFWMMLKKQHKVKKINAELLQCQPIFEKNPTVVKNYQIFLRYVSAGGIHNITKQYRDVTRVGAVRQMYNDLASQYRTRQDKIQLISITTVGDKAVKNPVLHQFVGHHVKFPMVHCKPVIASKRFNLPIKAGKLTTKLC
B7: 20 kDa antigen (protein, UniProt C4M6Z9 1-210)
chain: MRARMVGPGSSSSNYKSTTDPCRFMGCGPSSSTSSGYRKGGNAAGPMASKGTWAATTDIGKTAAVGADTYEAGYRKGGNAAGPMASKGTWAATTDIGITAGVGADTYEAGYRKGGNAAGPMASKGTWEATTDIGKTAAVGADTYEAGYRRGADAAGPMASKGTWAATTDSGITAPCSGTEPIPDSYEAAAVLAEQRKLEEEAANAAAEQQ

Molecular target: T1, GST-Adh recombinant protein (E. histolytica)
Assay: affinity purification with mass spectrometry; GST-tagged bait (or GST control) bound to glutathione-Sepharose (200 μg) incubated with total trophozoite lysate (2 mg), 4 h, 4 °C; SDS-PAGE, silver stain, bands cut, nano UPLC-QToF; hits with reliability above 95%; only the target purified

Question: B1 was tested. Which binding did it give?
Answer: The binding was “binds”.

Question: Which binding does the source give for B2 here?
Answer: Its binding is “binds”.

Question: With B3 as the binder, how does the binding read?
Answer: Its binding is “binds”.

Question: For B4, which binding is on record?
Answer: The binding was “binds”.

Question: For B5, which binding is on record?
Answer: Its binding is “binds”.

Question: For B6, which binding is on record?
Answer: Its binding is “binds”.

Question: Which binding does the source give for B7 here?
Answer: The binding was “binds”.
